One experiment deals with GFP-LC3C (UniProt Q9BXW4). In words: co-IP.
The next experiment concerns the target GFP-GABARAP (UniProt O95166). Description: co-IP.

Chains of the proteins cited; added tags and fusions are not shown. Residues count along the entry.
UniProt Q9BXW4, residues 1-126: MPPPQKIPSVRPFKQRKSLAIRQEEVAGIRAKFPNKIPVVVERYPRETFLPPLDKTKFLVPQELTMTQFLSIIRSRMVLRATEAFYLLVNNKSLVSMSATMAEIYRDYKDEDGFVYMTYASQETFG
UniProt O95166: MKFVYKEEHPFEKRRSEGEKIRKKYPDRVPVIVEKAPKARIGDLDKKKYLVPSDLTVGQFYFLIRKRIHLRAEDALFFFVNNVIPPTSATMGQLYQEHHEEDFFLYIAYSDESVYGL
UniProt P0DTC3: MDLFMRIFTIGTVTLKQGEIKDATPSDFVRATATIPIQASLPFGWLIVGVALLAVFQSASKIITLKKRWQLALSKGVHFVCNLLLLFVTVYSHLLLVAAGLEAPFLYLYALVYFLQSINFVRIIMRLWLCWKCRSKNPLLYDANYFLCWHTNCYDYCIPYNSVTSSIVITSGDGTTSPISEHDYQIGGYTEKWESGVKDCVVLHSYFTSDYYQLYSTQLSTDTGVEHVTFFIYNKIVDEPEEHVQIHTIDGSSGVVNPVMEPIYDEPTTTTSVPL

These are yes or no findings as the source states them, for the method shown. In cells and extracts the contact can be indirect. Some results given as binding are weak or reduced against the parent protein; the word gives no strength.

With “SARS-CoV-2 ORF3a-HA (from UniProt P0DTC3 1-275)”, the binding result with GFP-LC3C and in the experiment with GFP-GABARAP was “binds” throughout.
